Structures can show the parent of a compound that is named as a salt. Some of the results follow. The numbers are fractions of the control, whatever unit the source prints. Most entries show no effect beyond the scatter of the controls.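 MIN6, a mouse insulinoma beta-cell line, stably carries a lentiviral reporter where Pdx1 and Ins1 promoters each drive a nuclear fluorescent protein; Hoechst staining and automated imaging counted cells. Drugs were candidate hits if Ins1 promoter readout exceeded two median absolute deviations from DMSO controls while Pdx1 activity stayed near normal.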

This experiment relates to MIN6. The experiment can be described thus: % Pdx1+ Ins1+ (double-positive, mature) cells relative to DMSO control (fold of DMSO control); higher = more mature Ins1 promoter-active cells. The settings on record: 8.5 µM; 48 h; glucose 5 mM.
On to `CNCCC=C1c2ccccc2C=Cc2ccccc21` [Norcyclobenzaprine], for which the “% Pdx1+ Ins1+” value was determined as 0.775.

Take `CN1C(C(=O)Nc2ccccn2)=C(O)c2ccccc2S1(=O)=O` [Piroxicam]: the “% Pdx1+ Ins1+” value worked out at 1.18.

As to `COCCOC(=O)C1=C(C)NC(C)=C(C(=O)OC(C)C)C1c1cccc([N+](=O)[O-])c1` (stereo not drawn) [Nimodipine], the “% Pdx1+ Ins1+” value was determined as 0.81.

On to `CC1(C)S[C@@H]2[C@H](NC(=O)[C@H](N)c3ccccc3)C(=O)N2[C@H]1C(=O)OC1OC(=O)c2ccccc21` (stereo partly drawn) [Talampicillin hydrochloride], for which the “% Pdx1+ Ins1+” value came out at 0.915.

As to `NC(=O)OCC(O)COc1ccc(Cl)cc1` (stereo not drawn) [Chlorphensin carbamate], the “% Pdx1+ Ins1+” value was found to be 1.01.

Consider `Cc1c(NC(C)C)c(=O)n(-c2ccccc2)n1C` [Isopyrin hydrochloride], for which the “% Pdx1+ Ins1+” value is 0.846.

Turning to `CCCNC(C)C(=O)Nc1c(C)csc1C(=O)OC` (stereo not drawn) [Articaine hydrochloride], the “% Pdx1+ Ins1+” value was 0.967.

For `NCCc1cc[nH]n1` [Betazole hydrochloride], the “% Pdx1+ Ins1+” value is 1.03.

In the case of `CC(C[N+](C)(C)C)OC(N)=O` (stereo not drawn) [Bethanechol chloride], the “% Pdx1+ Ins1+” value was determined as 0.868.

On to `COc1ccc([C@@H]2Sc3ccccc3N(CCN(C)C)C(=O)[C@@H]2OC(C)=O)cc1` [Diltiazem hydrochloride], for which the “% Pdx1+ Ins1+” value is 1.11.

On to `Cc1cn([C@H]2C[C@H](N=[N+]=[N-])[C@@H](CO)O2)c(=O)[nH]c1=O` [Zidovudine, AZT], for which the “% Pdx1+ Ins1+” value amounted to 1.05.

Turning to `COc1ccc2c(c1)C(=O)N(CCc1ccc(S(=O)(=O)NC(=O)NC3CCCCC3)cc1)C(=O)C2(C)C` [Gliquidone], the “% Pdx1+ Ins1+” value was 1.08.

For the compound `CN(C)CCN(Cc1ccc(Cl)cc1)c1ccccn1` [Chloropyramine hydrochloride], the “% Pdx1+ Ins1+” value was found to be 1.06.

Consider `O=C(O)CNC(=O)C(CS)Cc1ccccc1` (stereo not drawn) [Thiorphan], for which the “% Pdx1+ Ins1+” value is 0.967.

Take `CN(C)CCCC1(c2ccc(F)cc2)OCc2cc(C#N)ccc21` (stereo not drawn) [Citalopram Hydrobromide]: the “% Pdx1+ Ins1+” value came to 0.731.

As for `CN(C)CCC(c1ccc(Cl)cc1)c1ccccn1` (stereo not drawn) [Chlorpheniramine maleate], the “% Pdx1+ Ins1+” value amounted to 1.14.

For the compound `COc1cc(N)c(Cl)cc1C(=O)NC1CCN(CCCOc2ccc(F)cc2)CC1OC` (stereo not drawn) [Cisapride], the “% Pdx1+ Ins1+” value worked out at 1.05.

On to `COC1=CC(=O)C[C@@H](C)[C@]12Oc1c(Cl)c(OC)cc(OC)c1C2=O` [Griseofulvin], for which the “% Pdx1+ Ins1+” value is 1.12.

Turning to `CC(C)(C)NCC(O)c1ccc(O)c(CO)c1` (stereo not drawn) [Salbutamol], the “% Pdx1+ Ins1+” value is 1.04.

For `Cc1c(OCC(F)(F)F)ccnc1C[S+]([O-])c1nc2ccccc2[nH]1` (stereo not drawn) [Lansoprazole], the “% Pdx1+ Ins1+” value stood at 0.966.

For the compound `COc1cc(N)c(Cl)cc1C(=O)NC1CCN(Cc2ccccc2)CC1` [Clebopride maleate], the “% Pdx1+ Ins1+” value stood at 0.85.

In the case of `COc1c(O)cc2c(c1O)[C@@H]1O[C@H](CO)[C@@H](O)[C@H](O)[C@H]1OC2=O` [Bergenin monohydrate], the “% Pdx1+ Ins1+” value was 0.957.

With `CCCCOc1ccc(OCCCN2CCOCC2)cc1` [Pramoxine hydrochloride], the “% Pdx1+ Ins1+” value was 0.794.

As to `O=C(NCC1CCCCN1)c1cc(OCC(F)(F)F)ccc1OCC(F)(F)F` (stereo not drawn) [Flecainide acetate], the “% Pdx1+ Ins1+” value is 0.852.

With `CC1CCc2cc(F)cc3c(=O)c(C(=O)O)cn1c23` (stereo not drawn) [Flumequine], the “% Pdx1+ Ins1+” value is 1.08.

For the compound `CCOC(=O)C1=C(C)NC(C)=C(C(=O)OC)C1c1cccc([N+](=O)[O-])c1` (stereo not drawn) [Nitrendipine], the “% Pdx1+ Ins1+” value came out at 0.825.

In the case of `CCn1cc(C(=O)O)c(=O)c2cc(F)c(N3CCNCC3)cc21` [Norfloxacin], the “% Pdx1+ Ins1+” value came out at 1.09.

As to `O=C(c1ccc(OCCN2CCCCC2)cc1)c1c(-c2ccc(O)cc2)sc2cc(O)ccc12` [Raloxifene hydrochloride], the “% Pdx1+ Ins1+” value worked out at 1.04.

On to `NS(=O)(=O)c1cc2c(cc1C(F)(F)F)NC(Cc1ccccc1)NS2(=O)=O` (stereo not drawn) [Bendroflumethiazide], for which the “% Pdx1+ Ins1+” value amounted to 0.907.

Turning to `CC(CN1c2ccccc2Sc2ccccc21)N(C)C` (stereo not drawn) [Promethazine hydrochloride], the “% Pdx1+ Ins1+” value stood at 0.877.

Turning to `CNC1(C)C2CCC(C2)C1(C)C` (stereo not drawn) [Mecamylamine hydrochloride], the “% Pdx1+ Ins1+” value turned out to be 1.07.

Turning to `Cn1c(=O)c2c(ncn2CC(O)CO)n(C)c1=O` (stereo not drawn) [Diprophylline], the “% Pdx1+ Ins1+” value was 1.15.

As for `CC(=C(CCO)SSCC1CCCO1)N(C=O)Cc1cnc(C)nc1N` (stereo in doubt) [Fursultiamine Hydrochloride], the “% Pdx1+ Ins1+” value came to 0.869.

`CCC(C)(CN(C)C)OC(=O)c1ccccc1` (stereo not drawn) [Amyleine hydrochloride]: the “% Pdx1+ Ins1+” value was determined as 0.947.

On to `C=C(NC(=O)C(=C)NC(=O)c1csc(C2=N[C@@H]3c4csc(n4)[C@H]4NC(=O)c5csc(n5)[C@H]([C@](C)(O)[C@@H](C)O)NC(=O)[C@H]5CSC(=N5)/C(=C/C)NC(=O)[C@H]([C@@H](C)O)NC(=O)c5csc(n5)[C@]3(CC2)NC(=O)[C@H](C)NC(=O)C(=C)NC(=O)[C@H](C)NC(=O)[C@H]([C@@H](C)CC)N[C@@H]2C=Cc3c([C@H](C)O)cc(nc3[C@H]2O)C(=O)O[C@@H]4C)n1)C(N)=O` [Thiostrepton], for which the “% Pdx1+ Ins1+” value worked out at 0.924.

For the compound `CC(C)(Oc1ccc(C2CC2(Cl)Cl)cc1)C(=O)O` (stereo not drawn) [Ciprofibrate], the “% Pdx1+ Ins1+” value was found to be 0.943.

With `CC1=C(C(=O)O)N2C(=O)[C@@H](NC(=O)[C@H](N)c3ccc(O)cc3)[C@H]2SC1` [Cefadroxil], the “% Pdx1+ Ins1+” value amounted to 0.827.

As for `CC(CCc1ccc(O)cc1)NCCc1ccc(O)c(O)c1` (stereo not drawn) [Dobutamine hydrochloride], the “% Pdx1+ Ins1+” value came out at 0.914.

With `Nc1ccc(S(N)(=O)=O)cc1` [Sulfanilamide], the “% Pdx1+ Ins1+” value came out at 0.844.

Turning to `CC[C@]12CCCN3CCc4c(n(c5ccccc45)[C@@](O)(C(=O)OC)C1)[C@@H]32` [Vincamine], the “% Pdx1+ Ins1+” value amounted to 0.918.

Turning to `O=C(O)c1cc(=O)c2c(OCC(O)COc3cccc4oc(C(=O)O)cc(=O)c34)cccc2o1` [Cromolyn disodium salt], the “% Pdx1+ Ins1+” value stood at 1.05.

On to `CC(=O)OC(C)C[N+](C)(C)C` (stereo not drawn) [Methacholine chloride], for which the “% Pdx1+ Ins1+” value worked out at 0.977.

In the case of `CCCCOc1ccc(CC(=O)NO)cc1` [Bufexamac], the “% Pdx1+ Ins1+” value came out at 1.16.

Turning to `C=CCc1ccccc1OCC(O)CNC(C)C` (stereo not drawn) [Alprenolol hydrochloride], the “% Pdx1+ Ins1+” value came to 0.952.

Take `NC[C@H]1CC[C@H](C(=O)O)CC1` [Tranexamic acid]: the “% Pdx1+ Ins1+” value is 1.13.

As to `CN(C)CCC(c1ccccc1)c1ccccn1` (stereo not drawn) [Pheniramine maleate], the “% Pdx1+ Ins1+” value is 1.04.

For the compound `CCSc1ccc2c(c1)N(CCCN1CCN(C)CC1)c1ccccc1S2` [Thiethylperazine malate], the “% Pdx1+ Ins1+” value was 0.816.

For the compound `Cc1c(C)c2c(c(C)c1O)CC[C@@](C)(CCC[C@H](C)CCC[C@H](C)CCCC(C)C)O2` (racemic) [Tocopherol (R,S)], the “% Pdx1+ Ins1+” value came out at 0.939.
